Source: patent US12667122B2, “Taste-modulation of cooling agents in beverages” (priority 2019, dated 2026)
Peptide text beside a SMILES is read from it.

How the values were obtained:
[1] = Sweeteners as taste-modulators of DIPA; type: in vivo, human; set-up: key to Ranking as taste-modulator of DIPA: excellent, when off-tastes are barely detectable; very good, when off-tastes are slightly present but not considered objectionable; good, when off-tastes are present but tolerated; not effective, where there is inadequate modulation of taste; poor, when the tastes are aversive; conditions: for Effect on the off-tastes of DIPA (in words): artificial sweeteners; for Ranking as taste-modulator of DIPA: sweetener prepared at 100 mL as in the table, solutions swallowed at 15 to 50 mL per unit session
[2] = Beverage swallowing test: duration of cooling in throat and chest and adverse taste ranking; type: in vivo, human; set-up: key: 0 (no adverse taste); 1 (mild taste); 2 (moderate taste); 3 (adverse taste); conditions: for Adverse taste (scale 0-3): 20 mg in 50 mL (0.4 mg/mL)
Text: DIPA compounds dissolved in water have an unpleasant, bitter, and metallic taste. The goal of the experiments was to find an adjunct that would make the DIPA beverage palatable. The anatomic sites for bitterness (adverse taste) are primarily on the dorsal surface of the posterior one-third of the tongue. The coolness and refreshment areas are on the hypopharynx and the upper one-third of the esophagus (FIG. 1). These are two different anatomic sites. Sensations of coolness from the oral cavity and oropharynx are not the primary targets. The esophagus is in the center of the thorax. When its lumen feels “cool,” this is like turning on the central air conditioner for the body. The goal of the beverage is to turn on this central air conditioning for at least 30 min and preferably longer without adverse tastes in the oral cavity. That is, the goal is to produce cool in the center of the chest but without bitter taste. A standard procedure was set. The cooling agent at various concentrations was made up to 50 mL with a liquid in a plastic cup (Flak Tek, Inc. South Carolina), beaker, whiskey glass, or bottle. For example, the final concentration of the coolant in the test solution may range from 0.1 to 0.5 mg/mL. The temperature of the liquid was measured and then swallowed. For example, 50 mL could be swallowed in five gulps or sipped. The duration of cooling in the throat and chest was recorded at various intervals until the cooling disappeared. The ranking of adverse taste was on a scale of 0 (no adverse taste), 1 (mild taste), 2 (moderate taste), or 3 (adverse taste). The value was for at least three trials per beverage.
Examples of test procedures and results. The usual method was to prepare a 2-mL vial containing a DIPA dissolved in water. The contents of the vial were added to beverages such as beer, soda drinks, fruit juice, coffee, tea, or water. A taste-modulating adjunct such as a sweetener can be in the 2-mL vial or present in the beverage. The drink is gulped at about 5 mL per swallow. The time and temperatures are noted. The onset of coolness in the center of the upper chest usually occurs within 3 min. For active compounds, this effect was pleasant and, depending on dose, could last for 10 minutes, an hour, or more. Gulping the liquid was important. When held in the mouth, the drink is cool and may have taste, but cooling in the center of the chest is reduced. Thus, sipping is not the correct method of drinking. Using these methods, a bottle of beer (e.g., ˜330 mL containing 33 mg of DIPA-1-9), if drank in a leisurely setting for one hour, can provide comfortable body cooling for 3 hr. Similarly, a smaller bottle of carbonated soda water (e.g., 200 mL), containing 15 mg of DIPA-1-6 produced immediate cooling relief for 30 min for individuals, for example, taking a break from playing tennis in the heat. For pharmaceutical uses, a tinted bottle with 20 mg of DIPA-1-9 in 50 mL of water with Splenda's Monk Fruit dissolved in it would be palatable and relieve the discomforts of indigestion.

Compound: OC[C@H]1O[C@H](O[C@]2(CCl)O[C@H](CCl)[C@@H](O)[C@@H]2O)[C@H](O)[C@@H](O)[C@H]1Cl [sucralose]
- Effect on the off-tastes of DIPA (in words) [1]: not very effective
- Ranking as taste-modulator of DIPA [1]: not effective

Compound: OC[C@H]1O[C@@](CO)(O[C@H]2O[C@H](CO)[C@@H](O)[C@H](O)[C@H]2O)[C@@H](O)[C@@H]1O [sucrose]
- Ranking as taste-modulator of DIPA [1]: very good

Compound: O=C1NS(=O)(=O)c2ccccc21 [saccharin]
- Effect on the off-tastes of DIPA (in words) [1]: ineffective
- Ranking as taste-modulator of DIPA [1]: poor

Compound: COC(=O)[C@H](Cc1ccccc1)NC(=O)[C@@H](N)CC(=O)O [aspartame] (HELM PEPTIDE1{D.F.[CO[*:1]]}$$$$V2.0)
- Effect on the off-tastes of DIPA (in words) [1]: inhibited the off-tastes

Compound: CCCCCCCCCP(=O)(C(C)C)C(C)C [DIPA-1-9, 1-Diisopropyl-phosphinoyl-nonane]
- Adverse Taste ([2]; 0.4 mg/L, apple juice (Martinelli, Mott's), 21 °C): 0
- Adverse Taste ([2]; 0.4 mg/L, grape juice (Welch Grape), 20 °C): 0
- Adverse Taste ([2]; 0.4 mg/L, guarana juice soda (Guarana Antarctica), 10 °C): 0
- Adverse Taste ([2]; 0.4 mg/L, orange juice (fresh-squeezed), 8 °C): 2
- Adverse Taste ([2]; 0.4 mg/L, sweetened soda (Coca-Cola), 7 °C): 3
- Adverse Taste ([2]; 0.4 mg/L, wine (Moscato d'Asti), 8 °C): 0
- Adverse Taste ([2]; 0.4 mg/mL, hot cappuccino drink (3 Coracoes, Brazil), 70 °C): 2
- Adverse Taste ([2]; 0.4 mg/mL, hot coffee + herbal sweetener (117 + Stevia extracts), 75 °C): 1
- Adverse Taste ([2]; 0.4 mg/mL, hot coffee cream/sugar (117, Nescafe), 65 °C): 1
- Adverse Taste ([2]; 0.4 mg/mL, hot coffee-no cream or sugar (117, Nescafe), 62 °C): 1
- Adverse Taste ([2]; 0.4 mg/mL, hot water + monk fruit (Splenda monk fruit), 50 °C): 0
- Adverse Taste ([2]; 0.4 mg/mL, hot water + monk fruit (Splenda monk fruit), 70 °C): 0
- Adverse Taste ([2]; 0.4 mg/mL, iced cold cappuccino (Starbuck's frappaccino), 8 °C): 2
- Adverse Taste ([2]; 0.4 mg/mL, red tea (Peach-Ceylon, no sweetener), 46 °C): 2
- Adverse Taste ([2]; 0.4 mg/mL, sweetened tea (Ito En + 10% sucrose), 10 °C): 0
- Adverse Taste ([2]; 0.4 mg/mL, sweetened tea (Ito En + Truvia or Monk's Fruit), 10 °C): 0
- Adverse Taste ([2]; 0.4 mg/mL, unsweetened green tea (Ito En), 10 °C): 3
- Adverse taste (scale 0-3) ([2]; carbonated water (Perrier, La Croix), 8 °C): 1
- Adverse taste (scale 0-3) ([2]; water (Crystal Geyser), 10 °C): 2
- Adverse taste (scale 0-3) ([2]; water (Crystal Geyser), 25 °C): 3
- Adverse taste (scale 0-3) ([2]; water (Crystal Geyser), 74 °C): 3
- Adverse taste (scale 0-3) ([2]; water + herbal sweetener (+Stevia leaf), 8 °C): 0
- Adverse taste (scale 0-3) ([2]; water + herbal sweetener (+Stevia leaf), 22 °C): 0
- Adverse taste (scale 0-3) ([2]; water + herbal sweetener (+Stevia leaf), 72 °C): 0
- Adverse taste (scale 0-3) ([2]; water + synthetic sweetener (Neotame at 0.2 mg/mL), 10 °C): 0
- Adverse Taste ([2]; 50 mL beverage, 0.2 mg/mL + Stevia, 20 °C): 0
- Adverse Taste ([2]; 50 mL beverage, 0.4 mg/mL + Stevia, 20 °C): 0
- Adverse Taste ([2]; 50 mL beverage, 0.4 mg/mL + Sucrose (10%), 20 °C): 0
- Adverse Taste ([2]; 50 mL beverage, 0.8 mg/mL + Stevia, 20 °C): 1
- Adverse Taste ([2]; 50 mL beverage, 0.8 mg/mL + Sucrose (10%), 20 °C): 1
- Adverse Taste ([2]; 50 mL beverage, 0.8 mg/mL + Sucrose (15%), 20 °C): 0
- Adverse Taste ([2]; Sake (Japanese rice wine), 10 °C): 0
- Adverse Taste ([2]; beer (Heineken), 7 °C): 0
- Adverse Taste ([2]; ginger ale (Canada Dry), 11 °C): 1
- Adverse Taste ([2]; ginger beer, juice (Q beer, Suja), 9 °C): 0
- Adverse Taste ([2]; non-alcoholic beer (Heineken 00), 7 °C): 0
- Adverse Taste ([2]; tonic water with quinine (Schweppes), 7 °C): 0
- Adverse Taste ([2]; wheat ale (Blue Moon), 9 °C): 0

Compound: CC1=CC(=O)[N-]S(=O)(=O)O1.[K+] [acesulfame-K]
- Effect on the off-tastes of DIPA (in words) [1]: ineffective
- Ranking as taste-modulator of DIPA [1]: poor

Compound: COC(=O)[C@H](Cc1ccccc1)NC(=O)[C@H](CC(=O)O)NCCC(C)(C)C [neotame]
- Effect on the off-tastes of DIPA (in words) [1]: completely masked
- Ranking as taste-modulator of DIPA [1]: excellent for
